Experimental data published in paper PMC8204342, “Dual arginine recognition of LRRK2 phosphorylated Rab GTPases” (Biophysical Journal, 2021).
Where a chain is given by its changes, count along the chain named. No constants are given. Whether binding was seen depends on the method and setting. In cells and extracts the contact can be indirect. Some results given as binding are weak or reduced against the parent protein; the word gives no strength. Where a sequence is shown, tags or fusion partners need not be part of it.

Sequences of proteins named here, by UniProt entry; tags and fusion partners are left off. A change or cut given only in a name is not applied to a line headed by its entry.
UniProt P61006: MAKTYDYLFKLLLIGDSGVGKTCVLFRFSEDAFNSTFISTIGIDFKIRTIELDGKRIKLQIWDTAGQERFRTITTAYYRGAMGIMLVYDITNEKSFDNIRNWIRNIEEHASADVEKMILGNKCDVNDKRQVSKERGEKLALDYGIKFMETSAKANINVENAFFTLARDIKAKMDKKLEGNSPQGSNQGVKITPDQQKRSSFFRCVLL

Tests used:
Experiment in all cases: co-IP; HEK293 cells transfected with Flag-LRRK2 Y1699C, HA-Rab8a and RILPL2-GFP; +/- 500 nM MLi-2 for 90 min; RILPL2-GFP precipitated with GFP binder Sepharose, immunoblot
[1] = biological target: T1, RILPL2-GFP D124A, full length (human) (UniProt Q969X0)
T1 sequence: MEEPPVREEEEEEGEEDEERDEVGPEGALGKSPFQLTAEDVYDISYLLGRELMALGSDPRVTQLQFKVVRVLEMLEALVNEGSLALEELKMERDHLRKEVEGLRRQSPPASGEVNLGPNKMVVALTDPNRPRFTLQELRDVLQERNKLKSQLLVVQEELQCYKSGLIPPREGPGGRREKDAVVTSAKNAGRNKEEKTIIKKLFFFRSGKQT

[2] = biological target: T2, RILPL2-GFP D127A, full length (human) (UniProt Q969X0)
T2 sequence: T1 sequence with A124D, D127A

[3] = biological target: T3, RILPL2-GFP D127N, full length (human) (UniProt Q969X0)
T3 sequence: T1 sequence with A124D, D127N

[4] = biological target: T4, RILPL2-GFP WT, full length (human) (UniProt Q969X0)
T4 sequence: T1 sequence with A124D

Measured: binding

HA-Rab8a WT phosphorylated at T72 in HEK293 cells co-expressing Flag-LRRK2 Y1699C (from UniProt P61006 1-207)
binds: all assays above
